## Library screening results

From ChEMBL document CHEMBL3988442, “University of Dundee, Small-Polar-MMV Screening Library” (2021).

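Viability assay of Plasmodium falciparum sporozoites; the read-out is not stated. The concentration is filed as 10 mM, unlikely as a test dose, so the dose is not known. The record gives no direction; compounds that gave an IC50 in retests scored well above the rest, so higher reads as lower viability. Strong results were mostly tested again. Size under these conditions: about 34,000 compounds, about 280 of them at 50% or above in at least one test.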

Each number is a percent effect as filed. The record does not define 0% and 100%; most values in the screen are far below 50% and negative numbers occur (in some assays of this library far below -100). Compounds were drawn at random from those tested, without regard to their results. Two or more numbers in one place are separate tests of the same structure; such repeats can differ widely.

compound | effect
Cc1c(C)n2c(SCC(=O)N3CCCCCC3)nnc2[nH]c1=O | -20.75% & -26.48%
Cn1cc(CN2Cc3cn(C)nc3C(COCC3CC3)C2)cn1 (centres unmarked) | 15.32%
Cc1cc(N2CCCC(O)(CN(C)C(=O)CCN)C2)c2cnccc2n1 (centres unmarked) | 15.85%
CN(C)Cc1ccnc(C2CCCN2Cc2cc3ccccc3s2)n1 (centres unmarked) | 0.1963%
CN(CCc1ccncc1)c1cnn(C)c(=O)c1Br | 3.76%
Cc1cn2c(n1)CCC(NC(=O)CCn1cncn1)C2 (centres unmarked) | -0.5705%
Cc1nccn1CCC1CCCCN1Cc1ccncc1 (centres unmarked) | 5.579%
CN(C)c1nccc(CNS(=O)(=O)c2cc(Cl)cc(Cl)c2)n1 | 2.131%
CN(C)C(CNCc1nc(-c2ccsc2)no1)c1ccsc1 (centres unmarked) | 22.53%
O=C(O)C(F)(F)F.[H][C@]12C[C@@H](CN(C)C)N(C(C)=O)[C@@]1([H])CCN(C(=O)c1occc1C)C2 | -4.291%
O=C(O)C(F)(F)F.c1csc(CNCC2COCc3c(-c4ccoc4)nnn3C2)n1 (centres unmarked) | -1.107%
O=C(c1cc(-c2cccnc2)[nH]n1)N1CCCC(c2cnccn2)C1 (centres unmarked) | 12.79%
CC(C)N1Cc2c(C(=O)N3CCOCC3)nn(C)c2C1.O=C(O)C(F)(F)F.O=C(O)C(F)(F)F | 3.886%
CN(C)CC1CN(Cc2coc(-c3ccc(Cl)cc3)n2)CCO1 (centres unmarked) | 5.047%
CC(C)C(Sc1nnnn1C1CC1)C(=O)NCc1cccnc1 (centres unmarked) | 5.233%
c1ccc(Cn2cc(CNC3CCc4ncnn4C3)cn2)cc1 (centres unmarked) | -23.15%
O=C(NCCCOCC1CC1)Nc1ccc(F)cc1 | -7.771%
CNc1cc2c(nn1)CCN(C(=O)c1ccc3c(c1)OCO3)C2 | -1.534%
Cn1ncc2c1CCCC2NCc1cccnc1 (centres unmarked) | 6.267%
c1coc(-c2noc(CN3CCC(c4ccn[nH]4)CC3)n2)c1 | -2%
O=C(NCc1nn(-c2ccccc2)c2c1CCC2)NC1CC1 | -3.06%
Cc1nc2c(c(Nc3ccccn3)n1)CN(S(C)(=O)=O)CC2 | -380.9%
Cc1ccc(CN(C)C(=O)c2cccc(NC(N)=O)c2)o1 | 11.7% & 9.942%
CCc1cn[nH]c1C1CCN(c2cc(C)c3cc(OC)ccc3n2)CC1 | 4.912%
CCOCC(O)CN1CCN(C(=O)CC(C)C)CC1 (centres unmarked) | 3.04%
COc1c(CNC2CCN(c3ncccn3)CC2)c(C(C)C)nn1C | -4.971%
Cn1cc(C(=O)N2CCCC(CN3CCCC3=O)C2)cn1 (centres unmarked) | 7.536%
CCC(O)c1nc2c([nH]1)CC(C)(C)CNC2=O (centres unmarked) | -14.38%
CCCn1ccc(C(=O)N2CCOC(c3nc(-c4cccs4)no3)C2)n1 (centres unmarked) | -11.54% & -32.57% & -40.78%
CNc1cc(C)nc(C2COCCN2Cc2csc(C)n2)n1 (centres unmarked) | -2.029%
N#Cc1ccccc1CN(CCO)Cc1ccsc1 | -18.8%
CC(C)Oc1ncccc1CNC(=O)c1cc(C2CC2)on1 | -0.1288%
CC(C)Oc1ccccc1NC(=O)N1CCC(n2cncn2)CC1 | -0.03241%
CCOCCNC(=O)Cc1cccc(I)c1 | 4.114%
CCc1cc(C(=O)N2CCC(Nc3ccc(C)nn3)CC2)sc1C | -15.93%
OCC1CCCN1c1cc(NCCc2c[nH]c3ccccc23)ncn1 (centres unmarked) | 5.815% & 12.88% & 21.13%
CSc1nccc(N2CCC(NCc3nc(C)cc(C)n3)CC2)n1 | -2.509%
[H][C@@]12CN(Cc3csc(C)n3)C[C@]1([H])CN(C(=O)c1ccncc1)C2 | -14.35%
Cc1nnc(NC(=O)CN2CCCC2c2c(C)nn(C)c2C)s1 (centres unmarked) | 12.3%
Cc1ccc(C(=O)N2CCn3c(COCC4CC4)cnc3C2C)nc1.O=C(O)C(F)(F)F (centres unmarked) | -5.839%
Cc1c(C(=O)O)oc2ccc(I)cc12 | 7.129%
Cc1ccnn1-c1ccc(C(=O)N2CCCC(n3ccnc3)C2)cc1 (centres unmarked) | 2.837%
Cl.O=C(C1CC1)N1CCc2ccccc2C12CCNCC2 | 1.906%
Cc1nn(C)c(N(C)C)c1CNCc1ccc(C(=O)N(C)C)cc1 | -7.225%
Cn1cccc1C(=O)NCc1cn2c(n1)CN(C(=O)c1ccsc1)CC2 | -1.823%
Cc1nc(C)n(CC2CCCN(CCC(=O)N3CCCCC3)C2)n1 (centres unmarked) | -2.775%
CCOc1ccc(Br)cc1C1CCCCN1.Cl (centres unmarked) | -1.907%
COC[C@]1(O)CCN(C2CCN(c3ccc(OC)cc3)CC2)CC1(C)C | -1.71% & 3.886%
COc1cccc(CCC(=O)N2CCC[C@@H](N)[C@@H]2c2ccccc2F)c1.Cl | 1.942%
[H][C@]12CCN(C(=O)c3ccno3)[C@@]1([H])CC(=O)N2CC1CC1 | -11.96%
O=C(c1ccco1)N1CCCn2cnc(COCC3CC3)c2C1 | 0.6076%
CC(C)c1nnc2n1CCN(C(=O)c1ccc(N(C)C)nn1)C2 | 8.86%
CSc1nccn1-c1cccc(C(=O)NCC(F)(F)F)c1 | 7.769%
CN1CCc2nc3cc(C(=O)NCc4cccs4)ccc3c(=O)n2CC1 | 0.8687%
CC(=O)N1CCC(C(=O)c2cnn(-c3ccccc3)c2N)C1 (centres unmarked) | -4.265%
COc1ccc(CCC(=O)N2CCCC2Cn2cc(C)cn2)cc1F (centres unmarked) | -14.34% & -18.22% & -34.38%
CNc1cc2c(nn1)CCN(C(=O)c1coc(Br)c1)C2 | 4.184%
Cc1cc(C)n(C2CCCN(C(=O)Cn3ccc(=O)n(C)c3=O)C2)n1 (centres unmarked) | 1.446%
COc1ccc(COCC(O)CNC(=O)c2cccc(OC)c2)cc1 (centres unmarked) | 3.499%
Cc1nc2c(c(NCCCN3CCOCC3)n1)CCN(C)C2 | 4.82%
O=C(c1cncs1)N1CCCC1c1ccn[nH]1 (centres unmarked) | 6.762%
COCc1n[nH]/c(=N\C(=O)c2c3c(nc4onc(C)c24)CCC3)s1 | -12.73%
CN(Cc1ccc(O)cc1)C(=O)NC1CCCN(c2ncccn2)C1 (centres unmarked) | -5.329%
CCOc1ccc(OCC(O)CN2CCN(S(C)(=O)=O)CC2)cc1 (centres unmarked) | -1.259%
CNS(=O)(=O)Cc1cccc(CNC(=O)Nc2cn[nH]c2)c1 | 3.105%
CCCN(C(=O)c1ccccn1)c1nc2c(s1)CCc1c-2cnn1C | 4.621% & 6.149% & 15.67%
O=C(O)C(F)(F)F.O=C(c1ccc[nH]1)N1CCn2cc(Cn3cccn3)nc2C1 | -2.835%
Cc1nnc2n1CCN(Cc1csc(COc3ccccc3)n1)C2 | 5.989%
CCn1nc2c(cc1=O)CN(CC(=O)Nc1nnc(C)s1)CC2 | 1.534%
CCc1nc(CN2CCCN(CC(=O)Nc3cccnc3)CC2)no1 | -5.128%
CC(C)(C)c1nc(CN(Cc2cccs2)C2CCS(=O)(=O)C2)cs1 (centres unmarked) | 9.9%
CC(C)C(NC(=O)c1cnc(N2CCOCC2)nc1)c1cccs1 (centres unmarked) | 2.002%
O=C(NCc1cc2n(n1)CCCN(Cc1ccc(CO)o1)C2)C1CCC1 | -0.7895%
CN(C)CCOCc1cncc2c1CCN(Cc1ccccn1)C2.O=C(O)C(F)(F)F.O=C(O)C(F)(F)F.O=C(O)C(F)(F)F | 18.23%
Cn1nc2c(cc1=O)CN(Cc1nc(C3CC3)no1)CC2 | 23.11%
CN(CCNC(=O)Nc1ccncc1)C1CCCCC1 | 19.2%
CN1CC2(CCCN(C(=O)Cc3cccc(O)c3)C2)OC1=O (centres unmarked) | 9.256%
O=C(c1cccnc1)N1CCCC(c2cc(C(F)F)n3ncnc3n2)C1 (centres unmarked) | 1.303%
CC(O)CN1CCC(CNCc2cccc(C(F)(F)F)c2)CC1 (centres unmarked) | 11.53%
O=C(c1ccoc1)N1CCCn2nnc(COCC3CC3)c2C1 | -15.36%
COCCN(Cc1cccnc1)S(=O)(=O)c1cccc(F)c1F | -7.353%
c1ccc(-c2nnc(CNCCn3cccn3)o2)cc1 | -15.05%
[H][C@@]12CCCCCN(C)[C@@]1([H])[C@H](c1ccccc1)CN2S(=O)(=O)C(C)C | 4.995%
O=C(O)C(F)(F)F.O=C(O)C(F)(F)F.[H][C@@]12COC[C@]1(COCC(=O)N(C)C)CN(Cc1cccc(C)n1)C2 | -4.298%
CC(C)Oc1cc(N2CCC(N3CCC(O)CC3)CC2)nc(N)n1 | -16.59%
CN(C)C(=O)NC1COC2(CCN(Cc3ccco3)CC2)C1 (centres unmarked) | 11.78% & -51.86% & -36.59%
CCC(CC)C(=O)N1CCN(Cc2nc3ccccc3c(=O)[nH]2)CC1 | 5.89%
CN(C)C(=O)CN1CCC2(CC1)CC(=O)c1ccc3ccccc3c1O2 | 28.41% & 58.1% & 56.14%
Cn1ccnc1CN1CCN(CCOc2ccccc2C#N)CC1 | 7.579%

The first 9 entries again:

compound,effect
Cc1c(C)n2c(SCC(=O)N3CCCCCC3)nnc2[nH]c1=O,-20.75% & -26.48%
Cn1cc(CN2Cc3cn(C)nc3C(COCC3CC3)C2)cn1 (centres unmarked),15.32%
Cc1cc(N2CCCC(O)(CN(C)C(=O)CCN)C2)c2cnccc2n1 (centres unmarked),15.85%
CN(C)Cc1ccnc(C2CCCN2Cc2cc3ccccc3s2)n1 (centres unmarked),0.1963%
CN(CCc1ccncc1)c1cnn(C)c(=O)c1Br,3.76%
Cc1cn2c(n1)CCC(NC(=O)CCn1cncn1)C2 (centres unmarked),-0.5705%
Cc1nccn1CCC1CCCCN1Cc1ccncc1 (centres unmarked),5.579%
CN(C)c1nccc(CNS(=O)(=O)c2cc(Cl)cc(Cl)c2)n1,2.131%
CN(C)C(CNCc1nc(-c2ccsc2)no1)c1ccsc1 (centres unmarked),22.53%